PubChem BioAssay AID1159584 – Peter MacCallum Cancer Centre, 2016

- Aim: 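Genes whose loss is lethal only together with E-cadherin loss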 (primary screen)
- Cell system: human MCF10A breast epithelial cells, parental and CDH1-null
- Reagent: siRNA against human genes
- Detection: 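ATP luminescence (CellTiter-Glo) viability per line relative to mean mock wells over all plates, and the ratio of CDH1-null to parental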
- Reading the numbers: CDH1-null / parental viability ratio: higher = CDH1-null cells survive relatively better than parental
In all, the deposit lists about 18,000 reagents; shown is an unselected part. Further read-outs or replicates are left out here. The record does not give: the amount of reagent, the time to read-out.

With knock-down of KCNJ10 the results were CDH1-null / parental viability ratio 1.32. After knock-down of PTBP3 the results were CDH1-null / parental viability ratio 0.97. With knock-down of CCNJ, the record shows CDH1-null / parental viability ratio 0.72. SFXN5 gave CDH1-null / parental viability ratio 0.88. After knock-down of ATP6V0E1, the record shows CDH1-null / parental viability ratio 1.26. Against HENMT1, the values are CDH1-null / parental viability ratio 1.29.

Knock-down of CCDC74A gave: CDH1-null / parental viability ratio 0.93. Against RCSD1 the deposit lists CDH1-null / parental viability ratio 0.86. With knock-down of HMGN2, the record shows CDH1-null / parental viability ratio 1.89.

Quoted from the listing, 2 entries:
SFXN5 — CDH1-null / parental viability ratio: 0.88
ATP6V0E1 — CDH1-null / parental viability ratio: 1.26

Additional records follow:
With knock-down of HUS1B, the screen gave CDH1-null / parental viability ratio 1.46. Knock-down of DEFB104B gave: CDH1-null / parental viability ratio 1.58. MAP3K9 scored CDH1-null / parental viability ratio 0.83. Depletion of ZSCAN26 resulted in: CDH1-null / parental viability ratio 1.07. CARMIL2 gave CDH1-null / parental viability ratio 1.02.
